Assay: Relative fluorescence of purified GFP phosphorylation mutants before phosphorylation
Conditions: not given

With “1MSKRRDSL: GFP with N-terminal phosphorylation site MSKRRDSL; 7% of wild type fluorescence (phosphorylation site inserted at the N-terminus)” the “fluorescence relative to the wild type protein” value was 7%.

Same assay, conditions: more drastically altered N-terminal phosphorylation sites, before phosphorylation

Point of comparison: “1IMRRRRSI1: S65T GFP with N-terminal phosphorylation site MRRRRSII (phosphorylation site inserted at the N-terminus)”, “Relative fluorescence as a % of GFP mutant S65T” value 5.1%. Against it:
- −2MRRRRSIIIF: S65T GFP with N-terminal phosphorylation site MRRRRSIIIF, N-terminus extended by two (phosphorylation site inserted at the N-terminus) — lower, 0.7%
- −3MRRRRSIIIIF: S65T GFP with N-terminal phosphorylation site MRRRRSIIIIF, N-terminus extended by three (phosphorylation site inserted at the N-terminus) — lower, 0.6%

Same assay, conditions: phosphorylation sites at the N-terminus, engineered into S65T GFP

Point of comparison: “1MRRESLLF: S65T GFP with N-terminal phosphorylation site MRRESLLF (phosphorylation site inserted at the N-terminus)”, “Relative fluorescence as a % of wild type” value 30%. Against it:
- 1MRDSCLF: S65T GFP with N-terminal phosphorylation site MRDSCLF (phosphorylation site inserted at the N-terminus) — lower, 27%
- 1MRKGSCLF: S65T GFP with N-terminal phosphorylation site MRKGSCLF (phosphorylation site inserted at the N-terminus) — higher, 40%
- 1MRKGSLLF: S65T GFP with N-terminal phosphorylation site MRKGSLLF (phosphorylation site inserted at the N-terminus) — higher, 52%
- 1MSKRRDSL: GFP with N-terminal phosphorylation site MSKRRDSL; 7% of wild type fluorescence (phosphorylation site inserted at the N-terminus) — lower, 7%
- 1MSRRDSCF: S65T GFP with N-terminal phosphorylation site MSRRDSCF (phosphorylation site inserted at the N-terminus) — higher, 43%
